In patent US20260085091A1, “PEPTIDES THAT SELECTIVELY BIND TO Trop2 AND USE THEREOF” (KYUNGPOOK NATIONAL UNIVERSITY INDUSTRY-ACADEMIC COOPERATION …, priority 2022, published 2026):
These are yes or no findings as the source states them, for the method shown. For some of these results: Binding seen in cells or lysates may run through a third protein. Some results given as binding are weak or reduced against the parent protein; the word gives no strength.

The chains behind the UniProt entries cited, without tags or fusion partners. Where a name states a change or a piece, a line headed by the entry shows the natural chain unless it says otherwise. Residues count along the entry.
UniProt P09758: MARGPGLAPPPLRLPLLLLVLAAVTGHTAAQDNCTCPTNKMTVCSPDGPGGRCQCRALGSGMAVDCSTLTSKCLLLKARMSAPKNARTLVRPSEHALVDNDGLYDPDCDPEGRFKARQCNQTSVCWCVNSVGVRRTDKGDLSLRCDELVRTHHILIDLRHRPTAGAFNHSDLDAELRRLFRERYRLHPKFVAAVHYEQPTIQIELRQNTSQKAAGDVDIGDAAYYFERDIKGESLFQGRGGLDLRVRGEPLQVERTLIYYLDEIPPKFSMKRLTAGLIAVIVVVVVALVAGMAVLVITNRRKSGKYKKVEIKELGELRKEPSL
human Trop2 linked with green fluorescence protein (GFP), expressed in transfected HEK293T cells: residues 27-323 of P09758
human recombinant Trop2 protein: residues 27-274 of P09758

Key:
[1] = molecular target: Trop2 (trophoblast antigen 2) expressed on human tumor cell lines (human) (UniProt P09758); experiment: phage cell ELISA, anti-T7 antibody detection
[2] = molecular target: human Trop2 linked with green fluorescence protein (GFP), expressed in transfected HEK293T cells (human) (UniProt P09758); experiment: pull-down competition; competitor of the biotin-labeled … peptide for Trop2 in cell lysates
[3] = molecular target: human Trop2 linked with green fluorescence protein (GFP), expressed in transfected HEK293T cells (human) (UniProt P09758); experiment: pull-down from lysates of Trop2-overexpressing HEK293T cells, anti-Trop2 western blot
[4] = molecular target: human recombinant Trop2 protein (human) (UniProt P09758); experiment: ELISA, rTrop2 coated, biotin-peptide detected with streptavidin-HRP

With CSTLNVESC (peptide, not shown: large carriers) [phage clone expressing … (SEQ ID NO: 1) peptide] the binding [1] was “binds”.

CSTLNVESC [unlabeled … (SEQ ID NO: 1) peptide] was tested, and the binding [2] was “binds”.

For CSTLNVESC (biotin conjugated at the N-terminal) [N-terminal biotin-linked … (SEQ ID NO: 1) peptide], the binding [3] was “binds” and the binding [4] was “binds”.
